Results reported in publication PMC11065752.
These are yes or no findings as the source states them, for the method shown. Binding seen in cells or lysates may run through a third protein. These calls come from enrichment with a bait or labelling near it, and not all partners need be listed.

Protein sequences, listed by entry. Tags and fused reporters are not part of them.
UniProt Q08J23: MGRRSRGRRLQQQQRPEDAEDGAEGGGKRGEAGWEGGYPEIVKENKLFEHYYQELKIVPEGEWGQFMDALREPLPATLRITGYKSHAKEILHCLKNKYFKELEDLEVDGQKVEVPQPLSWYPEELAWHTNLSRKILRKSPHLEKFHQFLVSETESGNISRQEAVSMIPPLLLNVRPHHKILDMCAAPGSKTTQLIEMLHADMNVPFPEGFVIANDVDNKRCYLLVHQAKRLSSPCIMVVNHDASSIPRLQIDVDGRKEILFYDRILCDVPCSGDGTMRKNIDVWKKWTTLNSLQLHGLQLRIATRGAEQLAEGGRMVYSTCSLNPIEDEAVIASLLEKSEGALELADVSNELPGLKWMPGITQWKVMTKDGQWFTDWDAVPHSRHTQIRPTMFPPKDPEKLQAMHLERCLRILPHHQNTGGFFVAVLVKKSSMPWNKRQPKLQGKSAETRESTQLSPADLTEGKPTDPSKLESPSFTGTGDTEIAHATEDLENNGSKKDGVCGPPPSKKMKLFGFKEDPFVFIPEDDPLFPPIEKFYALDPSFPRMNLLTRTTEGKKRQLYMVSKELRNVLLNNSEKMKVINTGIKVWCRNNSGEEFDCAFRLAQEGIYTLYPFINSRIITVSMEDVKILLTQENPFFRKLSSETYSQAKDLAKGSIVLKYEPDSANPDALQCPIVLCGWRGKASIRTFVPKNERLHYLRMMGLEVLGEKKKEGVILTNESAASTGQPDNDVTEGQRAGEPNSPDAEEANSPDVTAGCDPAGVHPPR
UniProt P67809: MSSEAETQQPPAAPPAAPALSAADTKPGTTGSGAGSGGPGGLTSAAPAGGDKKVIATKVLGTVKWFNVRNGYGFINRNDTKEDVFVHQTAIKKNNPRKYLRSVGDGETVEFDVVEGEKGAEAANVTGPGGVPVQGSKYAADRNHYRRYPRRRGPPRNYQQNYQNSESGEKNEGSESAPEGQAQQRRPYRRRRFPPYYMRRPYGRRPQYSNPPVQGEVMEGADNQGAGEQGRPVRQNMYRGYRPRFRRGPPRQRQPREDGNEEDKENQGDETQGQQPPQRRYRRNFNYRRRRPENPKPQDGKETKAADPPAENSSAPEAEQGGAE

Target: NOP2/Sun RNA methyltransferase family member 2 (NSUN2), flag-tagged (UniProt Q08J23)
Experiment: affinity purification with mass spectrometry; flag-tagged NSUN2 overexpressed in H1299 cells; flag affinity purification; silver staining; liquid chromatography-mass spectrometry of the immunoprecipitated proteins

YBX1 (from UniProt P67809 1-324)
binding: binds
